The supplement of paper PMC8728848
Some of the results follow.

How the values were obtained:
Test in all cases: glycan array binding signal (z-score within array); higher = stronger binding
Conditions in all cases: glycan notation: IUPAC condensed, linker removed
[1] = target: Gal(a1-3)Gal(b1-3)GlcNAc(b1-6)GalNAc
Procedure, shortened: (§1)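 Columns mapping to the same glycan were averaged after glycan names were converted to IUPAC-condensed notation. The data come from 3228 arrays in the Consortium for Functional Glycomics database, limited to those with an available protein sequence. Binding is reported as a within-array Z-score averaged across arrays of one protein sequence and across linkers.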

[2] = target: Gal(a1-3)Gal(b1-3)[Fuc(a1-4)]GlcNAc(b1-2)Man(a1-3)[Gal(a1-3)Gal(b1-3)[Fuc(a1-4)]GlcNAc(b1-2)Man(a1-6)]Man(b1-4)GlcNAc(b1-4)GlcNAc
Procedure, shortened: as §1

Gal(a1-3)Gal(b1-4)Glc = target: Gal(a1-3)Gal(b1-4)Glc
Procedure, shortened: as §1

Gal(a1-3)Gal(b1-4)GlcNAc = target: Gal(a1-3)Gal(b1-4)GlcNAc
Procedure, shortened: as §1

[3] = target: Gal(a1-3)Gal(b1-4)GlcNAc(b1-2)Man
Procedure, shortened: as §1

[4] = target: Gal(a1-3)Gal(b1-4)GlcNAc(b1-2)Man(a1-3)[Gal(a1-3)Gal(b1-4)GlcNAc(b1-2)Man(a1-6)]Man(b1-4)GlcNAc(b1-4)GlcNAc
Procedure, shortened: as §1

[5] = target: Gal(a1-3)Gal(b1-4)GlcNAc(b1-3)GalNAc
Procedure, shortened: as §1

[6] = target: Gal(a1-3)Gal(b1-4)GlcNAc(b1-6)GalNAc
Procedure, shortened: as §1

[7] = target: Gal(a1-3)Gal(b1-4)[Fuc(a1-3)]GlcNAc
Procedure, shortened: as §1

[8] = target: Gal(a1-3)Gal(b1-4)[Fuc(a1-3)]GlcNAc(b1-2)Man(a1-3)[Gal(a1-3)Gal(b1-4)[Fuc(a1-3)]GlcNAc(b1-2)Man(a1-6)]Man(b1-4)GlcNAc(b1-4)GlcNAc
Procedure, shortened: as §1

Gal(a1-3)GalNAc = target: Gal(a1-3)GalNAc
Procedure, shortened: as §1

[9] = target: Gal(a1-3)[Gal(a1-4)]Gal(b1-4)GlcNAc
Procedure, shortened: as §1

[10] = target: Gal(a1-4)Gal(b1-3)GlcNAc(b1-2)Man(a1-3)[Gal(a1-4)Gal(b1-3)GlcNAc(b1-2)Man(a1-6)]Man(b1-4)GlcNAc(b1-4)GlcNAc
Procedure, shortened: as §1

Gal(a1-4)Gal(b1-4)Glc = target: Gal(a1-4)Gal(b1-4)Glc
Procedure, shortened: as §1

Gal(a1-4)Gal(b1-4)GlcNAc = target: Gal(a1-4)Gal(b1-4)GlcNAc
Procedure, shortened: as §1

[11] = target: Gal(a1-4)Gal(b1-4)GlcNAc(b1-2)Man(a1-3)[Gal(a1-4)Gal(b1-4)GlcNAc(b1-2)Man(a1-6)]Man(b1-4)GlcNAc(b1-4)GlcNAc
Procedure, shortened: as §1

[12] = target: Gal(a1-4)Gal(b1-4)GlcNAc(b1-3)Gal(b1-4)Glc
Procedure, shortened: as §1

Gal(a1-4)GlcNAc = target: Gal(a1-4)GlcNAc
Procedure, shortened: as §1

Gal(a1-6)Glc = target: Gal(a1-6)Glc
Procedure, shortened: as §1

Gal(b1-2)Gal = target: Gal(b1-2)Gal
Procedure, shortened: as §1

Gal(b1-3)Gal = target: Gal(b1-3)Gal
Procedure, shortened: as §1

Gal(b1-3)Gal(b1-4)GlcNAc = target: Gal(b1-3)Gal(b1-4)GlcNAc
Procedure, shortened: as §1

Gal(b1-3)GalNAc = target: Gal(b1-3)GalNAc
Procedure, shortened: as §1

[13] = target: Gal(b1-3)GalNAc(a1-3)[Fuc(a1-2)]Gal(b1-4)Glc
Procedure, shortened: as §1

[14] = target: Gal(b1-3)GalNAc(a1-3)[Fuc(a1-2)]Gal(b1-4)GlcNAc
Procedure, shortened: as §1

Gal(b1-3)GalNAc(b1-3)Gal = target: Gal(b1-3)GalNAc(b1-3)Gal
Procedure, shortened: as §1

[15] = target: Gal(b1-3)GalNAc(b1-3)Gal(a1-4)Gal(b1-4)Glc
Procedure, shortened: as §1

[16] = target: Gal(b1-3)GalNAc(b1-4)Gal(b1-4)Glc
Procedure, shortened: as §1

[17] = target: Gal(b1-3)GalNAc(b1-4)[Neu5Ac(a2-3)]Gal(b1-4)Glc
Procedure, shortened: as §1

Gal(b1-3)GlcNAc = target: Gal(b1-3)GlcNAc
Procedure, shortened: as §1

[18] = target: Gal(b1-3)GlcNAc(a1-3)Gal(b1-4)GlcNAc
Procedure, shortened: as §1

[19] = target: Gal(b1-3)GlcNAc(a1-6)Gal(b1-4)GlcNAc
Procedure, shortened: as §1

Gal(b1-3)GlcNAc(b1-2)Man = target: Gal(b1-3)GlcNAc(b1-2)Man
Procedure, shortened: as §1

[20] = target: Gal(b1-3)GlcNAc(b1-2)Man(a1-3)[Gal(b1-3)GlcNAc(b1-2)Man(a1-6)]Man(b1-4)GlcNAc(b1-4)GlcNAc
Procedure, shortened: as §1

[21] = target: Gal(b1-3)GlcNAc(b1-2)Man(a1-3)[Gal(b1-3)GlcNAc(b1-2)Man(a1-6)]Man(b1-4)GlcNAc(b1-4)[Fuc(a1-6)]GlcNAc
Procedure, shortened: as §1

[22] = target: Gal(b1-3)GlcNAc(b1-2)Man(a1-3)[GlcNAc(b1-4)][Gal(b1-3)GlcNAc(b1-2)Man(a1-6)]Man(b1-4)GlcNAc(b1-4)GlcNAc
Procedure, shortened: as §1

[23] = target: Gal(b1-3)GlcNAc(b1-2)[Gal(b1-3)GlcNAc(b1-6)]Man(a1-6)[Gal(b1-3)GlcNAc(b1-2)Man(a1-3)]Man(b1-4)GlcNAc(b1-4)GlcNAc
Procedure, shortened: as §1

[24] = target: Gal(b1-3)GlcNAc(b1-3)Gal(b1-3)GlcNAc
Procedure, shortened: as §1

[25] = target: Gal(b1-3)GlcNAc(b1-3)Gal(b1-4)Glc
Procedure, shortened: as §1

[26] = target: Gal(b1-3)GlcNAc(b1-3)Gal(b1-4)GlcNAc
Procedure, shortened: as §1

[27] = target: Gal(b1-3)GlcNAc(b1-3)Gal(b1-4)GlcNAc(b1-2)Man(a1-3)[Gal(b1-3)GlcNAc(b1-3)Gal(b1-4)GlcNAc(b1-2)Man(a1-6)]Man(b1-4)GlcNAc(b1-4)GlcNAc
Procedure, shortened: as §1

[28] = target: Gal(b1-3)GlcNAc(b1-3)Gal(b1-4)GlcNAc(b1-2)[Gal(b1-3)GlcNAc(b1-3)Gal(b1-4)GlcNAc(b1-6)]Man(a1-6)[Gal(b1-3)GlcNAc(b1-3)Gal(b1-4)GlcNAc(b1-2)Man(a1-3)]Man(b1-4)GlcNAc(b1-4)[Fuc(a1-6)]GlcNAc
Procedure, shortened: as §1

[29] = target: Gal(b1-3)GlcNAc(b1-3)Gal(b1-4)GlcNAc(b1-3)Gal(b1-4)GlcNAc(b1-2)[Gal(b1-3)GlcNAc(b1-3)Gal(b1-4)GlcNAc(b1-3)Gal(b1-4)GlcNAc(b1-6)]Man(a1-6)[Gal(b1-3)GlcNAc(b1-3)Gal(b1-4)GlcNAc(b1-3)Gal(b1-4)GlcNAc(b1-2)Man(a1-3)]Man(b1-4)GlcNAc(b1-4)[Fuc(a1-6)]GlcNAc
Procedure, shortened: as §1

[30] = target: Gal(b1-3)GlcNAc(b1-3)Gal(b1-4)GlcNAc(b1-6)[Gal(b1-3)GlcNAc(b1-3)]Gal(b1-4)Glc
Procedure, shortened: as §1

[31] = target: Gal(b1-3)GlcNAc(b1-3)Gal(b1-4)[Fuc(a1-3)]GlcNAc
Procedure, shortened: as §1

B1: Endo180d1-D4 (Homo sapiens), Q9UBG0 (protein)
chain: MGPGRPAPAPWPRHLLRCVLLLGCLHLGRPGAPGDAALPEPNVFLIFSHGLQGCLEAQGGQVRVTPACNTSLPAQRWKWVSRNRLFNLGTMQCLGTGWPGTNTTASLGMYECDREALNLRWHCRTLGDQLSLLLGARTSNISKPGTLERGDQTRSGQWRIYGSEEDLCALPYHEVYTIQGNSHGKPCTIPFKYDNQWFHGCTSTGREDGHLWCATTQDYGKDERWGFCPIKSNDCETFWDKDQLTDSCYQFNFQSTLSWREAWASCEQQGADLLSITEIHEQTYINGLLTGYSSTLWIGLNDLDTSGGWQWSDNSPLKYLNWESDQPDNPSEENCGVIRTESSGGWQNRDCSIALPYVCKKKPNATAEPTPPDRWANVKVECEPSWQPFQGHCYRLQAEKRSWQESKKACLRGGGDLVSIHSMAELEFITKQIKQEVEELWIGLNDLKLQMNFEWSDGSLVSFTHWHPFEPNNFRDSLEDCVTIWGPEGRWNDSPCNQSLPSICKKAGQLSQGAAEEDHGCRKGWTWHSPSCYWLGEDQVTYSEARRLCTDHGSQLVTITNRFEQAFVSSLIYNWEGEYFWTALQDLNSTGSFFWLSGDEVMYTHWNRDQPGYSRGGCVALATGSAMGLWEVKNCTSFRARYICRQSLGTPVTPELPGPDPTPSLTGSCPQGWASDTKLRYCYKVFSSERLQDKKSWVQAQGACQELGAQLLSLASYEEEHFVANMLNKIFGESEPEIHEQHWFWIGLNRRDPRGGQSWRWSDGVGFSYHNFDRSRHDDDDIRGCAVLDLASLQWVAMQCDTQLDWICKIPRGTDVREPDDSPQGRREWLRFQEAEYKFFEHHSTWAQAQRICTWFQAELTSVHSQAELDFLSHNLQKFSRAQEQHWWIGLHTSESDGRFRWTDGSIINFISWAPGKPRPVGKDKKCVYMTASREDWGDQRCLTALPYICKRSNVTKETQPPDLPTTALGGCPSDWIQFLNKCFQVQGQEPQSRVKWSEAQFSCEQQEAQLVTITNPLEQAFITASLPNVTFDLWIGLHASQRDFQWVEQEPLMYANWAPGEPSGPSPAPSGNKPTSCAVVLHSPSAHFTGRWDDRSCTEETHGFICQKGTDPSLSPSPAALPPAPGTELSYLNGTFRLLQKPLRWHDALLLCESHNASLAYVPDPYTQAFLTQAARGLRTPLWIGLAGEEGSRRYSWVSEEPLNYVGWQDGEPQQPGGCTYVDVDGAWRTTSCDTKLQGAVCGVSSGPPPPRRISYHGSCPQGLADSAWIPFREHCYSFHMELLLGHKEARQRCQRAGGAVLSILDEMENVFVWEHLQSYEGQSRGAWLGMNFNPKGGTLVWQDNTAVNYSNWGPPGLGPSMLSHNSCYWIQSNSGLWRPGACTNITMGVVCKLPRAEQSSFSPSALPENPAALVVVLMAVLLLLALLTAALILYRRRQSIERGAFEGARYSRSSSSPTEATEKNILVSDMEMNEQQE
[1]
  glycan array binding signal (z-score): 0.29
[2]
  glycan array binding signal (z-score): 0.975
Gal(a1-3)Gal(b1-4)Glc
  glycan array binding signal (z-score): 0.291
Gal(a1-3)Gal(b1-4)GlcNAc
  glycan array binding signal (z-score): -0.683
[3]
  glycan array binding signal (z-score): -0.49
[4]
  glycan array binding signal (z-score): 0.04
[5]
  glycan array binding signal (z-score): 0.184
[6]
  glycan array binding signal (z-score): -0.505
[7]
  glycan array binding signal (z-score): -0.102
[8]
  glycan array binding signal (z-score): -0.306
Gal(a1-3)GalNAc
  glycan array binding signal (z-score): -0.458
[9]
  glycan array binding signal (z-score): 0.096
[10]
  glycan array binding signal (z-score): -0.019
Gal(a1-4)Gal(b1-4)Glc
  glycan array binding signal (z-score): 0.385
Gal(a1-4)Gal(b1-4)GlcNAc
  glycan array binding signal (z-score): 0.072
[11]
  glycan array binding signal (z-score): -0.187
[12]
  glycan array binding signal (z-score): -0.136
Gal(a1-4)GlcNAc
  glycan array binding signal (z-score): -0.552
Gal(a1-6)Glc
  glycan array binding signal (z-score): 0.11
Gal(b1-2)Gal
  glycan array binding signal (z-score): 0.723
Gal(b1-3)Gal
  glycan array binding signal (z-score): 0.074
Gal(b1-3)Gal(b1-4)GlcNAc
  glycan array binding signal (z-score): 0.793
Gal(b1-3)GalNAc
  glycan array binding signal (z-score): -0.002
[13]
  glycan array binding signal (z-score): -0.502
[14]
  glycan array binding signal (z-score): -1.31
Gal(b1-3)GalNAc(b1-3)Gal
  glycan array binding signal (z-score): -0.308
[15]
  glycan array binding signal (z-score): -0.318
[16]
  glycan array binding signal (z-score): -0.447
[17]
  glycan array binding signal (z-score): -0.221
Gal(b1-3)GlcNAc
  glycan array binding signal (z-score): 0.059
[18]
  glycan array binding signal (z-score): 0.387
[19]
  glycan array binding signal (z-score): -0.239
Gal(b1-3)GlcNAc(b1-2)Man
  glycan array binding signal (z-score): 0.202
[20]
  glycan array binding signal (z-score): -0.269
[21]
  glycan array binding signal (z-score): 0.338
[22]
  glycan array binding signal (z-score): -0.241
[23]
  glycan array binding signal (z-score): 0.904
[24]
  glycan array binding signal (z-score): -0.695
[25]
  glycan array binding signal (z-score): -0.601
[26]
  glycan array binding signal (z-score): 0.189
[27]
  glycan array binding signal (z-score): -0.535
[28]
  glycan array binding signal (z-score): -0.821
[29]
  glycan array binding signal (z-score): 0.339
[30]
  glycan array binding signal (z-score): 0.002
[31]
  glycan array binding signal (z-score): 0.312
